Reference: patent publication US20050163814A1, “Granulated phosphoroamido(di) thioates” (priority 2002, published 2005)

Experiment: Compaction via extrusion into granules
Settings: compaction behaviour on extrusion

Structure (SMILES) | extrusion (listed as Unmilled) | extrusion (listed as Milled)
COP(=O)(NC(C)=O)SC (centres unmarked) [Ex. 3, acephate, reference compound] | inconsistent compaction | –
COP(=O)(NC(C)=O)SC (centres unmarked) [Ex. 4, acephate] | – | consistent with high
